Test results published in the supplement of paper PMC12282887.
Structures can show the parent of a compound that is named as a salt. Values are raw readings; no control value is given beside them.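 The top concentration was set near the MIC for antimicrobials, at 500 µM for most other compounds, and up to 1 mM for known inducer-like compounds. Deletion strains started from a tenfold smaller inoculum, and wells growing below 10% of the overall median were treated as non-growing.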

System: Escherichia coli BW25113
Test: growth (OD600 area under curve, 8 h) (OD600 x h); higher = more growth
Experimental: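 E. coli BW25113 reporter strains (wild type, ΔmarA, ΔsoxS, Δrob, each carrying one of 8 lux reporter plasmids) were grown in 40 µl LB in 384-well plates at 37°C, 800 rpm, with each compound at 4 two-fold concentrations, in biological duplicates. Growth is the baseline-corrected OD600 area under the curve over 8 h (0-8 h WT, 1-9 h deletion strains).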

CCCC(=O)O [Butyrate]
growth
Conditions	reporter plasmid: EVC	reporter plasmid: acrABp	reporter plasmid: marRABp	reporter plasmid: micFp	reporter plasmid: ompFp	reporter plasmid: robp	reporter plasmid: soxSp	reporter plasmid: tolCp
6.9 µg/ml, genetic background: wild type	2.8	3.28	3.3991	3.08	3.19	3.36	2.93	3.11
6.9 µg/ml, genetic background: ΔmarA	3.34	3.87	3.75	3.22	3.44	3.77	2.73	2.77
6.9 µg/ml, genetic background: Δrob	3.08	3.05	3.3	3.31	2.7	2.68	2.85	3.07
6.9 µg/ml, genetic background: ΔsoxS	3.11	3.05	3.08	2.63	3.22	3.28	3.09	3.07
13.8 µg/ml, genetic background: wild type	2.54	3.22	3.35	2.98	3.11	3.305	2.8	2.89
13.8 µg/ml, genetic background: ΔmarA	3.08	4.1	3.42	3.03	3.33	3.5	2.44	2.69
13.8 µg/ml, genetic background: Δrob	2.95	2.81	3.33	3.12	2.65	2.69	2.86	3.04
13.8 µg/ml, genetic background: ΔsoxS	2.95	2.98	3.13	2.53	2.89	3.16	3.02	3.13
27.5 µg/ml, genetic background: wild type	2.49	3.14	3.27	2.95	3.03	3.24	2.776	2.8
27.5 µg/ml, genetic background: ΔmarA	3.04	3.78	3.43	2.9	3.54	3.64	2.51	2.62
27.5 µg/ml, genetic background: Δrob	2.92	2.9	3.24	2.97	2.74	2.59	2.47	2.82
27.5 µg/ml, genetic background: ΔsoxS	2.78	2.81	3.18	2.54	3	3	2.88	2.82
55 µg/ml, genetic background: wild type	2.41	2.95	3.24	2.74	2.93	3.32	2.772	2.79
55 µg/ml, genetic background: ΔmarA	2.75	3.73	3.41	3	3.25	3.43	2.19	2.623
55 µg/ml, genetic background: Δrob	2.83	2.836	3.12	2.77	2.4	2.48	2.44	2.84
55 µg/ml, genetic background: ΔsoxS	2.89	2.72	3.09	2.51	2.84	2.93	2.68	2.82

O=C(O)COCCN1CCN(C(c2ccccc2)c2ccc(Cl)cc2)CC1 (stereo unspecified) [Cetirizine dihydrochloride]
growth
Conditions	reporter plasmid: EVC	reporter plasmid: acrABp	reporter plasmid: marRABp	reporter plasmid: micFp	reporter plasmid: ompFp	reporter plasmid: robp	reporter plasmid: soxSp	reporter plasmid: tolCp
28.9 µg/ml, genetic background: wild type	2.5	2.95	3.24	3.05	2.84	3.14	2.81	2.99
28.9 µg/ml, genetic background: ΔmarA	2.91	3.76	3.35	2.93	3.08	3.1	2.46	2.8
28.9 µg/ml, genetic background: Δrob	2.08	2.94	3.04	2.94	2.36	2.36	2.7	2.81
28.9 µg/ml, genetic background: ΔsoxS	2.46	2.74	2.81	2.23	2.38	2.66	2.54	2.25
57.7 µg/ml, genetic background: wild type	2.57	2.92	3.39	2.98	2.87	3.11	2.82	2.83
57.7 µg/ml, genetic background: ΔmarA	2.92	4.01	3.43	2.63	3.27	3.13	2.56	2.75
57.7 µg/ml, genetic background: Δrob	2.03	3.07	3.084	2.71	2.44	2.359	2.48	2.63
57.7 µg/ml, genetic background: ΔsoxS	2.22	2.74	3.05	2.232	2.6	2.869	2.5	2.2
115.5 µg/ml, genetic background: wild type	2.51	3.31	3.42	3	3.135	3.184	2.69	2.91
115.5 µg/ml, genetic background: ΔmarA	2.73	4.1	3.44	2.71	3.37	3.37	2.52	2.95
115.5 µg/ml, genetic background: Δrob	2.17	3.6	3.42	2.55	2.22	2.65	2.48	2.67
115.5 µg/ml, genetic background: ΔsoxS	2.3	2.99	3.33	2.09	2.99	3.084	2.71	2.2241
230.9 µg/ml, genetic background: wild type	2.688	2.95	3.24	2.932	2.87	3.05	2.62	2.95
230.9 µg/ml, genetic background: ΔmarA	2.695	3.97	3.43	2.5606	3.1	3.58	2.39	2.65
230.9 µg/ml, genetic background: Δrob	1.85	3.322	3.45	2.3	2.37	2.78	2.23	2.21
230.9 µg/ml, genetic background: ΔsoxS	2.2	2.99	3.46	1.97	3.32	3.167	2.76	2.11
